No constants are given. Whether binding was seen depends on the method and setting. In cells and extracts the contact can be indirect. A yes stands for co-enrichment or nearness to the bait. Other partners may have been found.
biological target: dGOLPH3-mRFP (Drosophila) (UniProt Q9VQ93); test: affinity purification with mass spectrometry; RFP-trap beads on lysate of 3000 adult testes expressing dGOLPH3-RFP (RFP alone as control); lysis buffer 25 mM Tris-HCl pH 7.4, 150 mM NaCl, 1 mM EDTA, 1% NP-40; washes at 4 °C; nanoLC-MS/MS

Amino acid sequences for entries named in this document (tags omitted).
UniProt Q9VQ93: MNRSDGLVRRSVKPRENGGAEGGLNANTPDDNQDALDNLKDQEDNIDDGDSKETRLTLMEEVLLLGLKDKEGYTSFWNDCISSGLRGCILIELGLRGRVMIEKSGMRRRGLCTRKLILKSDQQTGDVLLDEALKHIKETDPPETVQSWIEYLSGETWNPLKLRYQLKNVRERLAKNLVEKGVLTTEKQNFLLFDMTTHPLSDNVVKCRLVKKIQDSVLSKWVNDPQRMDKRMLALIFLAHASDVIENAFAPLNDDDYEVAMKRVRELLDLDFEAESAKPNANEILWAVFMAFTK

binding	Binder
binds	Rsph9 (protein, UniProt Q8T3V7 1-281) MNLEFFTEGLDCLMYCGMKLSPEQRILIENSLIALQNDNRFTGMYLWGRITATKNDYYIAFGYTNDCLKDRKYFYSLDQFQWQLLPFVQSPKIFQATILAREPFIGDPSLMTYVKLDPTFDIVGNQVAGISRPEVVKLKEEERLAAIVFIITEECAICPRGAFYKMTDGRVIPNQMFRGLNDLQIDNQSYYQLYRLPRNDLKVNLAKRSDYNYAIDFLDTIDCVIPLCQAFALNMQRNEGLVIIKSCLWLGMTFFHKINSHKHGFLYLGDGKKNFDLLFMY
binds	Sec22 (protein, UniProt M9PGI6 1-213) MALLTMIARVIDGLPLVGTMQDDEQVPSGRSILDYQNQAKMLFRKLGTHSPARCSIETGPYLFHYLIENDVCYLVMVDKMYSKRLAFNYLEDLAQEFHANYGRRVNSVTRPYAFIEFDVYIQKAKKQLTDRRRNISNINTQLQDVQRIMVQNIDDVLQRGTVLAELDTKTQNLSMMSQKYKKDAKLLNRKSMYVKAMALGMILLVFIMYFWVL
binds	Sec24CD (protein, UniProt Q9VQ94 1-1193) MNPNMYGPPPTQFQQQPQFGAPPPNSGGWPPQQQQLPQQQPPQQQLPPQQQQQQPQYGAPPPTSAASQPYLNGNYQQQLATSMGGLSVGGGVGGANPLKPPLPQGAPAAAAPPPTGFNQFNSNAAPPPTNNNNAAFGAPPPTQAGSYVNGALPPSSTPQSVASGINQMSLNSATLAGLPHMPPPKAATPGAAPGQPPIPAAGSTSQPPLPGQPPLPGQPPFSGQIPTSQPAPSPYGVPSSRPGQPQLPPGATPPTYTQPGLPPQQQQGIPPLQQPGIPQQQPGFPPQQPGLPPLSQPGLPPQPGAPYGAPQQGGYSGGFPGQAPGGFPGAPPPLPGQQAAAPPQFGAPQPGYPGQQPGYPPQPGQQPMPGYPPQPGQQLGGPGYPPQPGAGFPGQPGRPGFNQPPMPGAGNMYQQAPQARRLDPDQMPNPIQVMIENQRLSGGPFVTNQPGLLPPLVTTKFVVHDQGNSSPRFLRSSLYCIPNTGDLLKTTALPLTLNISPLAKVGEGEMEPPIVNFGEMGPIRCNRCKAYMSPNMQFVDAGRRFQCLMCKVTSEVHQNYYQHLDHTGQRVDKHERPELLLGTYEFLATKDYCRNNTPPEVPAFIFIIDVSYNTVKSGLVHLLCSQIKNILKHLPVDQGQDKSKVRVGFITYNSTVHFYNIKSSLAQPQMMVVGDVQEMFMPLLDGFLCHPEESAAVIDALMEEIPRMFADTKETETILYPAIQAGLEALKASNAAGKLLVFNSTLPIAEAPGKLKNRDDRKLLGTDKEKTVLTPQTTAYNTLGQECVQQGCSVDLFVFNNAYIDLATIGQVSRLTGGEVFKYTYFQADVDGKRLIQDIIKNVSRPIAFDAVMRVRTSAGIRPTEFYGHFFMSNTTDVELASIDATKSISIEIKHDDKLAPEENVYLQVALLYTSCSGQRRLRILNLALRVTTTIADVFKCCDLDAMMLFFAKQACFKLMEHSPKQVKDNLIHRSAQILACYRKHCTSPTSAGQLILPECLKLLPLYASCLLKNDAISGGSDMTLDDRSYVIQFILSMDLNQSVSYLYPRFIPIHNVVPEETDLPTPVRCTHEKTQEDGAYILENGVHLFVWLGQALSPDFVQSVFGVQGLQQIALERFNIVPETPLAKRIHGILEQIMKERSRYMRITWLRQNDKLESVFRHFLVEDRGTDGSASYVDFLCHMHKEIKDLLS

The remaining lines, values behind:

Binder	binding
Kinesin-like protein at 59D (Klp59D) (protein, UniProt Q9W1U1 1-729) MDRIKIGEQLLFQRSDGRVHQVVCTAKNLERDSITGEWTEGTVVKGKEVPLSTLIGINHHIFAENQPPISKPPSSLLPKPRGSSPTGGPKTHTGNPYAERMRVQDGRSKIATRKTDPAAVGAGNHELGRAHTPRVPAGRPDRDASPTQGRKSQGGNNSNQRFSSVVREVNRMKEQREKRRARQAEQLQEKDALRRNNPGNPNWEVSVMLRQYRSTLIFSPLRCLDPNGGTVQQITVCVRKRPMSRKEENSKNLDIITVPSADSLIVHELRLKVDLTKFLEHHKFRFDYTFDEECSNALVYDHTARPLIRTMFEGGNATCFAYGQTGSGKTHTMGGEFFGKVQDCGTGIYAMAARDVFEEVSRPEYRQMGAKITCSFFEIYGTKVFDLLLPNKPMLRVLEDARQQVVVVGLTEMPVTKVEDVLRLIEHGSKERTSGQTSANAKSSRSHAVFQIALHFPDSWGPHGKCSFVDLAGNERGADTQSADRQTRIEGAEINKSLLALKECIRALSRQSSHLPFRGSKLTQVLRDSFVGGKKNKTCMIAMISPSMSCVENTLNTLRYADRVKELIAKEDEHLQSVEGDGEKSPDLNEESEPEMMADEEGDEEPEDEDNQHLTISSEEASSYNNMSYDMSFNHTLNILGPSRNVDIQEVAEQHALLVENLETYAHNFRQLKTDKEIEQYTQNSESALMKLLAMVNRTRDVTHNYNTQKLLKEENQNAYKKGELDESE	binds
Kinesin-like protein at 10A (Klp10A) (protein, UniProt Q960Z0 1-805) MDMITVGQSVKIKRTDGRVHMAVVAVINQSGKCITVEWYERGETKGKEVELDAILTLNPELMQDTVEQHAAPEPKKQATAPMNLSRNPTQSAIGGNLTSRMTMAGNMLNKIQESQSIPNPIVSSNSVNTNSNSNTTAGGGGGTTTSTTTGLQRPRYSQAATGQQQTRIASAVPNNTLPNPSAAASAGPAAQGVATAATTQGAGGASTRRSHALKEVERLKENREKRRARQAEMKEEKVALMNQDPGNPNWETAQMIREYQSTLEFVPLLDGQAVDDHQITVCVRKRPISRKEVNRKEIDVISVPRKDMLIVHEPRSKVDLTKFLENHKFRFDYAFNDTCDNAMVYKYTAKPLVKTIFEGGMATCFAYGQTGSGKTHTMGGEFNGKVQDCKNGIYAMAAKDVFVTLNMPRYRAMNLVVSASFFEIYSGKVFDLLSDKQKLRVLEDGKQQVQVVGLTEKVVDGVEEVLKLIQHGNAARTSGQTSANSNSSRSHAVFQIVLRPQGSTKIHGKFSFIDLAGNERGVDTSSADRQTRMEGAEINKSLLALKECIRALGKQSAHLPFRVSKLTQVLRDSFIGEKSKTCMIAMISPGLSSCEHTLNTLRYADRVKELVVKDIVEVCPGGDTEPIEITDDEEEEELNMVHPHSHQLHPNSHAPASQSNNQRAPASHHSGAVIHNNNNNNNKNGNAGNMDLAMLSSLSEHEMSDELIVQHQAIDDLQQTEEMVVEYHRTVNATLETFLAESKALYNLTNYVDYDQDSYCKRGESMFSQLLDIAIQCRDMMAEYRAKLAKEEMLSCSFNSPNGKR	binds
Centrosomal protein of 97 kDa (CEP97) (protein, UniProt Q9VQV7 1-806) MSGDESGEEKHVLNLSKQKLKKVPKQDDAHSIRQLILDENELQKIDNIDSYLKIETLSLARNQLLRMYGVCRLHCLRELNLSFNGILSIEGLKECIHLRVLNLEGNNIKTIEHLNTNVNLECLNLADNSIGSISDMSYLRNLKELYLHGNRLTHLRQCDKCLPTSLETLTLAKNSINDLNEICTLSHLSNLLSISIADNPCVTMINSLDGFDYRPFVLNWCMSLKYIDGFVVDPIESLKAEWLYSQGRGRQFRVGEQQGLAKYLSSVCPLVGKALENENDRKLRLILSKAQHHQRQLQEEIMDNANSSASTSPSSHRKKPTSRIQSPRFSRLSGRQGSPESMVNSYHGNSSNNSIVSDNGSTNHSLQMSISLIENIKNDGEGFSLAGSGMSSSVTTKTYNSTESTPRNITPNPYNDQTFISQTPSGGPLAAASKMVPVPETLMSPDVCPAAVAQRVTVTALNPQLHKTKINKNKDNKLNLPRVRSPQLKRNQSPTSSPRRMANKCSADNMQAPEKLQQSAVLADSGGFSTDDDGEQINIEKLRAIRKMAAQKQQQMHQEQLKQQVDNNLNCQDRLIEHVTESSAVTIQKMWRGYHTRKKTNKDIAERLQRRRTQEYIEQLGKDMLLTKAQLENERKIQQLQMQAINALWKKVSTMEVDPKGIPAAAEQGEDSNGGGSGHLSLDQNSAAVVNDLAKRCTMLTDQVQMLQSSIGTIVNCLTMVCNLPQDAIKKQAEIIDCSSTQTDLIAVHTPQIEDLTNFPFTKTRPSTLALESKHEAALACPKIDELNDVDLKETQEDSENLDKDP	binds
CG9313 (protein, UniProt Q8MSJ9 1-739) MATKPGKGDGKQVKGKRTSKNKTDGPGGGGGDADDFDAWMKSRQLLKPDDQLDLTEAELGEEITKVLTPTNTNIVRNLVVYSFKEGEFVPAPLPGNTVTLIAFAGNSLHVDSDEGRRQIEESDEIGYPLPMPNYTVVEQRETDNVDGEEGEGEEDDDGATAKDAAVEDEDVEEEDDEEAKGTEGDEGEGEGEGEGAAARQEDDEPAHQAAAVSSKKRKLINQFNYCERGALTYTNPKRNVDTQTIPPPRSQFGANVLQWVIYDSYMENFAESQKDGTKKEERKRGKREKKFRDKSAIAEQLNKKYLKCWQILERMINQNIYDDIAHDYRYWEDPADEFREGEGNLLPLWKFQYDKTKKMNVTDILFNPSYYDLFAVCFGSHDFMKQTNEGYLCLFTVKNPSFPDYIIQTDCGVMCCDIHPTYPFLAVIGLYDGNVAVYNLREDCKEPLYVSRGVNCKHGECVWQIKWGLDMADGEVNFFSVSSDGRVFNWILMQNKLWVTTIITLYRENGLVDGPDGTKVTLKSGGSCMVFHPVDNKIFLVGTECGYIYKCSTAFSSKYLMTYYAHNMSVYRIDFNRFNSNIFVSCGADWMVKVWEDMRPDPLFIFDLGAAVGDVKWAPYSSTVFAAVTTEGKVHVFDLNVNKYKAICIQAVVPKRKNKLTRLSFNEKLAFIVVGDEKGVTTSLKLSPNLRMMVKPPKKQLYLDQNTLQIGKLEKLLSLVRELPEGSTAVPDAATTVRS	binds
Ataxin-2 (dAtx2) (protein, UniProt Q8SWR8 1-1084) MNNNSKRKTRPTGGGASGGISRYNSNDNSLRPTNNKAGAGGGNGGAAVRPSAQGVYNNTFFMHSATALVGSVVEVRLRSGNIYEGVFRTFSGNFDIALELPACIKSKNLPEEGKVPKHIIFPADTVVTIVAKDFDSQYATAGAFQTDGAISDKCNGARPDEKELEPWDSGANGDIDIELDSAANGWDPNEMFRKNENTFGVTSTFDDSLASYTVPLDKGDSLEFKEAEAKAEKLAAEIENNPTCRDRLDLENGDEEALFAAVERPSTEQDQRGDRGDRERNDRDREREERDRDRDRDRGNKPRGAGDFQLRETMSSDRYITKQTRSITGPQLSHVGMSSQGSGRDRDTRGDGSMMMQSGGGSGQGGSTQSTAALMLAGGLKGVGPAPSANASADSSSKYSGGSMVKRKTVPQGGKVMRNNVPTGGSNVSVSQGGNGNSVGQNKGGYQPSMGMPSQYSYQGNSQIMHGSSQYRNQSHMGGANKLNGDSNANTNKPLPQRQMRQYQGSQSNSSLNYGGEPQSLGKPVHGSHGGHPGQNSNSPPLQTAGPQQQQQQQQQQQQQQQQQQPPQQQQHQNIQPQGQNTQPARQVRTRDNQMQELRQFGQDFQLAPSNTSPPQQQQQQQQQQQQHQVQQQQQRALQQSASPPQQQQQQQQQQQHVVLHQVPQTHLHQAALSQPHYVPQQQPQQAPLPQQQHVPHHMQQKAQQQQLVETQHQHVQKQHQSQPQVQQPPPQLLQDPSQQPLPIYHTMPPPQTSPVVVTSPVLLEQPPPQPMPVVQQQQTQQLATPKPEVSPAPPSSNTTTPTGIASTPTAGVIASAGSEKTTPAAPTPTSNSATVPTGTAATAGGATGTTPVVKKHVLNPSAKPFTPRGPSTPNPSRPHTPQTPVPMTNIYTTTGGHVPPAANQPIYVMQPQHPFPPQTHPQAGQPPRLRRSNYPPMAASQMHVSASAATGQPLITAGPIPQFIQYGHAPHQQQFQSHTYAPMQMRVYPDQPQQLQFMTQTPQSTTPSPGQPHQQFHPPPQPSPAGGGPQPAFTPPTQAATYQLMCVHPQSLLANHYFPPPTPQHPQQNQQQYQIVMQQHQPQ	binds

Reference: PMC8468827
